Out of some 6,900 compounds screened, fewer than 10 were called active. The call rests on the fitted dose curve; in most records, active means well fitted curve in the direction sought with a large enough effect; inconclusive means small, poorly fitted or top-dose-only effect, or another doubt; inactive means no such curve, though single readings can be large or run the other way. This is one part of the list.

By UniProt entry, the sequences of proteins in these tests, tags left out. Where a name states a change or a piece, a line headed by the entry shows the natural chain unless it says otherwise.
UniProt C7C422: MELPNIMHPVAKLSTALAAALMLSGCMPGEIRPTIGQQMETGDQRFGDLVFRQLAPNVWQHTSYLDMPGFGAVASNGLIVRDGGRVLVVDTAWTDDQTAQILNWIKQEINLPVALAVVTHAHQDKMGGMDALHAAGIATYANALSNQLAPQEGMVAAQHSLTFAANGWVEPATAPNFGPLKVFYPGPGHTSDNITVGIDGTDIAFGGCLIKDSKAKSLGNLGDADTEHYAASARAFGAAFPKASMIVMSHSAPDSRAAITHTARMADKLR

This assay addresses Metallo-beta-lactamase type 2 (Klebsiella pneumoniae) (UniProt C7C422). In words: qHTS to identify inhibitors of the New Delhi Metallo-beta-lactamase (NDM): primary screen against the NCATS Gemini Collection. Further: % of control where 0% means no effect. The conditions noted are these: NDM-1 enzyme, meropenem hydrolysis, absorbance 300 nm; at 38.4 µM (top of the series) unless noted. The source says:
Assay Submitter (PI): James Inglese Ph.D., Patricia Dranchak Ph.D., Mahesh Aitha Ph.D. Assay Development and Screening Technology Laboratory (ADST) National Center for Advancing Translational Sciences (NCATS), Rockville, MD National Institute of Health (NIH), Bethesda, Maryland The metallo-beta-lactamases (MBL) are a main antibiotic resistance mechanism evolved by bacteria. There is an urgent clinical need for MBL inhibitors to mitigate this growing threat. To support a machine-based learning study, qHTS has been used to experimentally test inhibitors identified by prediction tools.
PROTOCOL TABLE (as described by Inglese et al., 2007) SEQUENCE No. (e.g., 1, 2, 3, etc.); […] (e.g., enzyme, Incubation, Reagent, etc.); VALUE; DESCRIPTION 1; NDM-1; 4 uL of 3 nM enzyme [2 nM final] in 50 mM HEPES (pH 7.0), 1 uM […], 0.01% Tween20; Use BioRaptr to dispense into Aurora black, clear bottom low base 1536-well plates 2; Compounds; 23 nL; Use Pin Tool (Wako) to transfer DMSO control and library compounds in DMSO 3; Incubate; >30 min 4; Reagent; 2 uL of 150 uM meropenem [50 uM final] 5; Incubate; 30 min. 6; Detector; Absorbance at 300 nm (bandwidth = 5 nm, 25 flashes/well) on Tecan Infinity NOTES (numbers refer to sequence above) 1; Column 1 of each plate received assay buffer without enzyme and columns 2-48 received enzyme for a final assay concentration of 2 nM. 2; Control plate contained DMSO in columns 1, 2, 3, and 4. 3; Compound interaction with enzyme. 4; Meropenem substrate was prepared in the same assay buffer as step 1 for a final assay concentration of 50 uM and added to all wells across the assay plates. 5; Substrate interaction with enzyme, plateau phase of kinetics. 6; Default reader settings were applied for absorbance read at 300 nm, bandwidth = 5 nm, 25 flashes/well. References: Inglese J, Shamu CE, Guy RK. 2007. Reporting data from high-throughput screening of small-molecule libraries. Nat Chem Biol. doi:10.1038/nchembio0807-438 Yasgar A, Shinn P, Jadhav A, Auld D, Michael S, Zheng W, Austin CP, Inglese J, Simeonov A. 2008. Compound Management for Quantitative High-Throughput Screening. J Lab Autom 13:79 - 89. doi:10.1016/j.jala.2007.12.004
With `CCC1(N2CCN(C(=O)COc3ccc(Cl)cc3C)CC2)CCN(C(=O)NC)C1` (stereo not given), the activity % (negative = inhibition) is inactive: -1.67%. With `CN1CCC(NCC2(CO)C[C@@H](O)[C@@H](O)C2)CC1` (stereo not given in full), the activity % (negative = inhibition) is inactive: -4.08% [at 57.5 µM].

As to `Cc1noc(-c2ccc(N3CC4CC(C3)c3cccc(=O)n3C4)nc2)n1` (stereo not given), the activity % (negative = inhibition) was inactive: 18.7%. The value for `Cn1nc(-c2cccs2)cc1[C@H]1CN2CC[C@H]1C[C@@H]2CNS(C)(=O)=O` was inactive: 6.98% [at 57.5 µM]; that for `CN(C)CC(=O)Nc1ccc2n(c1=O)C[C@H]1C[C@@H]2CN(C(=O)c2cccnc2)C1` was inactive: 20.6% [at 57.5 µM]; that for `CS(=O)(=O)N1C[C@H]2CCN(Cc3ccncc3F)C[C@H]21` was inactive: -1.76%.

With `N#CC1(c2ccccc2)CCN(C(=O)c2cn(-c3ccccc3)nn2)CC1`, the activity % (negative = inhibition) was inactive: 5.87%. For the compound `CNCc1cn(C[C@H]2CC3CCN2C[C@@H]3C(=O)Nc2ccccc2)nn1` (stereo not given in full), the activity % (negative = inhibition) is inactive: 0.624% [at 57.5 µM]. As to `CCCc1nc(C)cc(N2CCC3(CC2)CNC(C(=O)O)C3)n1` (stereo not given), the activity % (negative = inhibition) was inactive: 24.9%. For the compound `O=C(Cc1ccc(Cl)cc1)N1CCN(C2CCN(Cc3ccccn3)C2=O)CC1` (stereo not given), the activity % (negative = inhibition) is inactive: 0.0207%. Consider `c1cncc(C2=NOC3(CCN(C4COC4)CC3)C2)c1`, for which the activity % (negative = inhibition) is inactive: -0.206% [at 57.5 µM].

As to `Cc1nc(-c2cccs2)cc([C@H]2CN3CC[C@H]2C[C@@H]3COC(=O)Nc2ccc(C(C)C)cc2)n1`, the activity % (negative = inhibition) was inactive: 4.42%. Take `COCCN1C(=O)CS(=O)(=O)C12CCNCC2`: the activity % (negative = inhibition) was inactive: 7.59%. In the case of `Cc1cc(CN2CCC23Cc2ccccc2NC3=O)no1` (stereo not given), the activity % (negative = inhibition) is inactive: 2.62% [at 57.5 µM].

Regarding `NC(=O)CN1C(=O)CO[C@H]2CN(Cc3ccccn3)C[C@H]21`, the activity % (negative = inhibition) was inactive: 3% [at 77.1 µM]. Consider `CCC1(N2CCN(C(=O)Cc3c[nH]c4ccccc34)CC2)CCN(S(C)(=O)=O)C1` (stereo not given), for which the activity % (negative = inhibition) is inactive: 2.15%. On to `C=C[C@H]1CN2CC[C@H]1C[C@@H]2CNC(=O)N1CCOCC1`, for which the activity % (negative = inhibition) is inactive: 9.21% [at 77.1 µM]. For the compound `O=c1ccc(-c2ccccc2F)c2n1C[C@H]1C[C@@H]2CN(Cc2ccc(CO)o2)C1`, the activity % (negative = inhibition) was inactive: 5.85% [at 57.5 µM].

With `COCCO[C@H]1COCCN(C2CCOCC2)C1`, the activity % (negative = inhibition) is inactive: 7.41% [at 77.1 µM]. With `COc1ccc(-c2ccc3n(c2=O)C[C@H]2C[C@@H]3CN(S(C)(=O)=O)C2)cc1`, the activity % (negative = inhibition) was inactive: 14.3% [at 57.5 µM].

On to `Cc1cc(CN2CCC3(C2)C(=O)N(C)c2ccccc23)no1` (stereo not given), for which the activity % (negative = inhibition) was inactive: 0.144% [at 57.5 µM]. Regarding `N#Cc1cccc(-c2ccc3n(c2=O)C[C@H]2C[C@@H]3CN(C(=O)c3ccc(F)cc3)C2)c1`, the activity % (negative = inhibition) is inactive: 22.3% [at 57.5 µM]. Take `CC(=O)N1CCC2(C1)N=C(c1cccnc1)C(=O)N2` (stereo not given): the activity % (negative = inhibition) was inactive: 2.36% [at 57.5 µM]. Regarding `CC(C)C1=NOC2(CCCN(Cc3ccccn3)C2)C1` (stereo not given), the activity % (negative = inhibition) was inactive: 2.29% [at 57.5 µM]. The value for `C=C[C@H]1CN2CC[C@H]1C[C@@H]2CNC(=O)Nc1ccc(Br)cc1` was inactive: 6.61% [at 57.5 µM]. Regarding `O=C1N(Cc2cccnc2)C[C@H]2CN(C3CCC3)CCN12`, the activity % (negative = inhibition) was inactive: -2.04% [at 77.1 µM]. Consider `Cn1nc(C2CCCC2)cc1[C@H]1CN2CC[C@H]1C[C@@H]2CNC(=O)c1cccs1`, for which the activity % (negative = inhibition) was inactive: 15.2% [at 57.5 µM]. For the compound `COc1ccc(S(=O)(=O)N2C[C@@H]3C[C@H](C2)c2c(-c4cccs4)ccc(=O)n2C3)cc1`, the activity % (negative = inhibition) is inactive: 3.88%. As to `CCCn1cc(C(=O)NC(C(=O)O)c2ccccc2C(F)(F)F)c(C)n1` (stereo not given), the activity % (negative = inhibition) is inactive: 2.92%. Consider `O=C(Nc1ccc2n(c1=O)C[C@H]1C[C@@H]2CN(c2ncccn2)C1)c1ccccc1`, for which the activity % (negative = inhibition) is inactive: 10.8% [at 57.5 µM].

As to `CCCSc1ncc(CN2CC[C@H]3CNC[C@H]32)cn1`, the activity % (negative = inhibition) is inactive: 15.9%.

`O=C(NC1CCCCC1)OC[C@H]1C[C@@H]2CCN1C[C@@H]2c1cc(C2CCCC2)nc(-c2ccncc2)n1`: the activity % (negative = inhibition) was inactive: 96.4%.

For `COCC1CN(C)CC12CCN(C(=O)c1cncc(C)c1)CC2` (stereo not given), the activity % (negative = inhibition) is inactive: -5.18%.

`NC(=O)c1ccc(-c2cccc3c2CCNC3)s1`: the activity % (negative = inhibition) was inactive: 3.49%. Consider `COc1cc2c(cc1CCc1ccccc1)N(C(=O)C(C)C)CC21CCN(C(C)=O)CC1`, for which the activity % (negative = inhibition) was inactive: 8.68% [at 57.5 µM]. `Cc1nc(-c2ccco2)cc([C@H]2CN3CC[C@H]2C[C@@H]3CNS(C)(=O)=O)n1`: the activity % (negative = inhibition) is inactive: 22% [at 57.5 µM]. In the case of `COc1ccccc1-n1cc(C2=CCN(CCOCCO)CC2)cn1` it was inactive: 8.21%. With `CS(=O)(=O)N1C[C@H]2CCN(Cc3ccc[nH]3)C[C@H]21`, the activity % (negative = inhibition) was inactive: 29.3%.

Take `O=C1Nc2ccccc2CC12CCN(Cc1cccnc1)C2` (stereo not given): the activity % (negative = inhibition) was inactive: -9.58% [at 57.5 µM]. Take `CCc1cnc(N2CCC3(CC2)C(=O)Nc2cc(OCC4CC4)c(OC)cc23)nc1`: the activity % (negative = inhibition) is inactive: 8.59% [at 57.5 µM].

These data come from PubChem BioAssay AID1794845 (National Center for Advancing Translational Sciences (NCATS), 2023).
